For three molecules, binding results are on record in US20250011427A1 (CONCEPT TO MEDICINE BIOTECH, published 2025).

Changes are numbered by the printed parent chain. Results are given in words; binding and its absence hold for the method and conditions named. For part of these data: A result given as binding can be weak or reduced; the word gives no strength.

The chains are these.
B1: 153A6B1 chimeric antibody (antibody, V domains shown)
VH: QVQLKESGPGLVQPSQTLSLTCTVSGFSLTSYNIHWVRQPPGKGLEWMGRIRYNGDTSYNSALKSRLSISRDTSKNQVFLKMSSLQTDDTGTYYCTRGPYGGSREPLFDYWGQGVMVTVSS
VL: DIKMTQSPSFLSAAVGDRVTINCKTSQNINKYLNWFQQKLGAAPKLLIYTTNNLQTGIPSRFSGSGSGTDFTLTISSLQPEDVATYFCLQHGSGYTFGAGTKLELK
B2: 192A7B9 chimeric antibody (antibody, V domains shown)
VH: B1 VH with T21N, I34V, I51M, S83N, Y100R, S103Y, R104Y, E105S, P106A
VL: DIQMTQSPSFLSASVGDRVTINCKASQNINRYLNWYQQKLGDAPKVLISIANSLQTGIPSRFSGSGSGTDFTLTISSLQPEDVATYFCLQHNSWYTFGAGTKLELK
B3: 155A9B1 chimeric antibody (antibody, V domains shown)
VH: B1 VH with I34V, I51V, V78A, S83N, T87I, R104S
VL: B1 VL with A14S, T25A, A42E, K45R, G92N

In the first assay the target is mouse CD3 protein (mouse). Put plainly: ELISA, plate coated with mouse CD3 protein. In general terms: An ELISA detects its analyte on a solid surface through an enzyme-linked reagent.
B1: the binding entry is listed as “no binding (tested: starting from 15 µg/ml)”.
Same read-out and setting: the result for B2 reads “no binding (tested: starting from 15 µg/ml)”; that for B3, “no binding (tested: starting from 15 µg/ml)”.

In a further assay the target is cynomolgus CD3 protein (cynomolgus). Put plainly: ELISA.
In the case of B1, the binding entry is given as “binds”.
Same read-out and setting: the value for B2 was “binds”; that for B3 was “binds”.
